The target in assay [1] is CMG2 on EA.hy926 endothelial cells (human (endogenous in EA.hy926)) (UniProt P58335). The assay is described as follows: flow cytometry on cells. For orientation: In flow cytometry, cells or beads pass a laser one at a time.
Assay [2] shares this target. Briefly: flow cytometry on cells. This is another data set of the same source.
Assay [3] has as its target CMG2-GST-biotin (human CMG2 vWA domain 40-217, [change], [change], GST fusion, biotin-labelled) (human) (UniProt P58335). Briefly: BLI. On the technique in general: In BLI a coated tip is dipped into the sample, and binding shifts an interference pattern.

Chains of the proteins cited; added tags and fusions are not shown. Lines headed by an entry give the natural chain unless they say otherwise; changes in a name come on top. Residues count along the entry.
CMG2 on EA.hy926 endothelial cells (human (endogenous in EA.hy926)) (P58335, residues 34-489): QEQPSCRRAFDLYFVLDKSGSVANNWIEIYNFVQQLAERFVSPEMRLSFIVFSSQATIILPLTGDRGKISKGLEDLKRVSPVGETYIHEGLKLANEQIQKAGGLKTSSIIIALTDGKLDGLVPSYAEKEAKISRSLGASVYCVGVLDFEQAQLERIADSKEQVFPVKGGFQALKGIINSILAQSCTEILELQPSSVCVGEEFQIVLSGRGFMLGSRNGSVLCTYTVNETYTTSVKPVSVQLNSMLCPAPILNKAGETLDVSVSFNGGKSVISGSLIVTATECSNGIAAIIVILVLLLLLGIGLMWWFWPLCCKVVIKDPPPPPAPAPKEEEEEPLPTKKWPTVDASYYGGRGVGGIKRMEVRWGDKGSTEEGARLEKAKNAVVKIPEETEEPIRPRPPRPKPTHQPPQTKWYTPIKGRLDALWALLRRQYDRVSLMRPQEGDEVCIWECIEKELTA

Where two headings read alike, the source gives them in different places. No constants are given. Whether binding was seen depends on the method and setting. Some binding calls cover weakened binding; strength is not graded here.

Our source for the binding values is publication doi:10.1101/705459 (bioRxiv, 2019).

B1: S16-488 (S16 conjugated at the N-terminus to HiLite-488) (peptide)
peptide: PAIAIAVHSQDVSIP
modifications: HiLite-488 on the N-terminus
As for B1, the binding result in assay [1] and in assay [2] was “binds” throughout.

B2: Peptide S16 (canstatin-derived 15-mer) (peptide)
peptide: PAIAIAVHSQDVSIP
Consider B2, for which the binding entry in assay [3] is listed as “no binding (condition: with 10 mM EDTA)”.
